Laboratory results: PubChem BioAssay AID652243 (Drosophila RNAi Screening Center, 2013)
Assay: 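Fly genes required for human androgen receptor driven transcription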 (primary screen). Cells: Drosophila S2R+ cells. Reagent: long dsRNA against Drosophila genes. Timing: 72 h (48 h, then 24 h hormone). Treatment: synthetic androgen R1881 at 10 nM for 24 h. Measured: 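Firefly light from an androgen-responsive reporter and Renilla control light per well, raw and unnormalised, for each of two replicates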. Scale: firefly reporter light: higher = more light from androgen-responsive reporter; Renilla control light: higher = more constitutive control signal (cell number, transfection). Call rule: 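Hit when the log firefly-to-Renilla ratio dropped or increased by a fixed fold versus the mean of GFP or LacZ controls across duplicate plates; lowering cut given as 1.5 and as 3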. Calls: active = hit: reporter lowered or raised; inactive = no hit.
The screen tested about 24,000 reagents; below is an unselected part of those with a known target gene and a result. Over the whole deposit, 246 (1%) were called active. 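Plates not normalised; calls are printed but the firefly/Renilla ratio behind them is not deposited; fold cut for lowering reported inconsistently.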 The raw values are shown without normalisation. The numbers tell different reagents against one gene apart. A plus sign joins genes that one reagent is predicted to hit. No sequences are given here. Not given: the amount of reagent.

target	reagent no.	firefly reporter light, replicate 1	firefly reporter light, replicate 2	Renilla control light, replicate 1	Renilla control light, replicate 2	outcome
CG10214	1	1.44e5	92380	8.36e5	5.35e5	inactive
CG16852	1	3.19e5	3.10e5	1.45e6	1.42e6	inactive
MKP-4	1	52166	65932	5.08e5	4.23e5	inactive
MKP-4	2	3.17e5	2.25e5	4.20e5	5.40e5	inactive
MKP-4	3					inactive
Ndc80	1	92063	1.19e5	9.69e5	1.13e6	inactive
Ndc80	2	3.16e5	3.03e5	1.14e6	1.41e6	inactive
CG10669	1	1.05e5	1.43e5	1.04e6	1.83e6	inactive
CG5050	1	1.95e5	2.03e5	2.11e6	2.01e6	inactive
peg	1	4.45e5	5.73e5	1.34e6	1.62e6	inactive
peg	2	3.30e5	3.14e5	2.30e5	1.73e5	inactive
CG10365	1	1.90e5	1.49e5	2.78e6	1.79e6	inactive
CG8728	1	1.13e6	4.13e5	1.52e6	7.93e5	inactive
JMJD4	1	1.43e6	1.09e6	3.07e6	2.63e6	inactive
JMJD4	2	7.42e5	6.06e5	8.56e5	1.09e6	inactive
E(spl)malpha-BFM	1	66626	80520	9.15e5	7.85e5	inactive
E(spl)malpha-BFM	2	3.66e5	6.60e5	7.88e5	1.48e6	inactive
CG15456	1	1.28e5	94327	5.39e5	3.27e5	inactive
Cdc45	1	36736	30272	3.61e5	3.19e5	inactive
Cdc45	2	1.26e5	1.49e5	2.73e6	1.93e6	inactive
Cyp4ad1	1	1.09e6	1.31e6	2.01e6	1.93e6	inactive
ttm2	1	89977	79620	1.35e6	1.24e6	inactive
CG42284	1	5.75e5	5.50e5	8.59e5	8.05e5	inactive
CG42284	2	6.26e5	7.73e5	1.55e6	7.89e5	inactive
ms(3)K81	1	2.03e5	2.16e5	3.27e6	2.87e6	inactive
CG43131	1	5.87e5	3.86e5	2.70e6	3.11e6	inactive
dsh	1	6.37e5	4.50e5	3.52e6	3.29e6	inactive
dsh	2	6.85e5	5.68e5	1.12e6	9.35e5	inactive
CG13920	1	1.72e6	1.50e6	2.50e6	2.07e6	inactive
Syx1A	1	83401	78297	1.41e6	2.16e6	inactive
Syx1A	2	6.45e5	6.71e5	1.99e6	1.76e6	inactive
Zif	1	1.40e5	47080	5.60e5	4.55e5	inactive
Cpr72Eb	1	2.80e5	2.14e5	2.75e6	2.54e6	inactive
CG6654	1	66288	60922	6.55e5	5.22e5	inactive
CG14312	1	70628	94643	1.38e6	1.56e6	inactive
Enoph	1	50573	58238	9.77e5	1.07e6	inactive
CG33341	1	7.25e5	8.80e5	2.35e6	2.41e6	inactive
CG33341	2	1.16e6	1.26e6	7.28e5	7.32e5	inactive
CG33341	3	7.56e5	6.90e5	1.55e6	1.47e6	inactive
Grip	1	2.59e5	3.05e5	2.99e6	3.49e6	inactive
Grip	2	2.93e5	2.76e5	6.37e5	7.84e5	inactive
CG3014	1	79475	1.18e5	1.63e6	1.78e6	inactive
CG15547	1	1.71e5	1.61e5	1.84e6	2.62e6	inactive
CG15547	2	3.73e5	4.55e5	8.78e5	8.78e5	inactive
CG31810	1	3.08e5	3.33e5	7.01e5	7.87e5	inactive
sgll	1	61394	83960	1.47e6	1.61e6	inactive
CG9921	1	6.19e5	5.52e5	3.05e6	4.22e6	inactive
CG11334	1	4.51e5	1.83e5	5.80e5	3.16e5	inactive
CG11334	2	2.49e5	2.13e5	1.92e6	2.94e6	inactive
CG14174	1	1.32e5	1.52e5	1.95e6	1.43e6	inactive
dyl	1	8.69e5	9.08e5	1.20e6	1.42e6	inactive
dyl	2	2.28e5	1.93e5	2.30e6	2.52e6	inactive
dyl	3	5.32e5	3.03e5	6.04e5	5.76e5	inactive
Glg1	1	45261	56492	3.30e5	2.34e5	inactive
Glg1	2	2.89e5	2.12e5	2.27e6	1.16e6	inactive
Glg1	3	3.08e5	2.79e5	3.12e6	2.79e6	inactive
CG13639	1	2.44e5	2.48e5	2.18e6	2.01e6	inactive
dyw	1	3.91e5	2.91e5	4.26e6	3.93e6	inactive
dyw	2	5.59e5	4.09e5	9.64e5	1.03e6	inactive
SpdS	1	1.37e5	1.70e5	3.01e6	2.08e6	inactive
Lmx1a	1	1.07e5	1.36e5	1.16e6	1.06e6	inactive
Lmx1a	2	3.18e5	2.55e5	8.42e5	7.97e5	inactive
dpr9	1	1.08e5	1.60e5	9.98e5	1.30e6	inactive
dpr9	2	53083	80066	1.44e6	1.61e6	inactive
dpr9	3	94633	38118	1.34e6	6.98e5	inactive
dpr9	4	3.85e5	3.84e5	4.61e5	5.03e5	inactive
Gr63a	1	92278	81422	8.47e5	1.01e6	inactive
CG8366	1	33395	50162	9.31e5	9.31e5	inactive
Grx1	1	3.60e5	2.83e5	2.28e6	2.48e6	inactive
CG17321	1	1.51e5	1.98e5	1.89e6	1.75e6	inactive
CG17321	2	8.22e5	9.12e5	7.14e5	8.35e5	inactive
asRNA:CR43476 + CG42534	1	8.66e5	9.53e5	1.13e6	1.29e6	inactive
CCT2	1	96744	85533	7.02e5	5.87e5	inactive
CCT2	2	2.84e5	3.25e5	6.99e5	9.31e5	inactive
CCT2	3	6.51e5	9.03e5	2.23e6	2.26e6	inactive

Part of the list above, set out differently:
CG43131
- firefly reporter light, replicate 1: 5.87e5
- firefly reporter light, replicate 2: 3.86e5
- Renilla control light, replicate 1: 2.70e6
- Renilla control light, replicate 2: 3.11e6
- outcome: inactive

dsh #1
- firefly reporter light, replicate 1: 6.37e5
- firefly reporter light, replicate 2: 4.50e5
- Renilla control light, replicate 1: 3.52e6
- Renilla control light, replicate 2: 3.29e6
- outcome: inactive

dsh #2
- firefly reporter light, replicate 1: 6.85e5
- firefly reporter light, replicate 2: 5.68e5
- Renilla control light, replicate 1: 1.12e6
- Renilla control light, replicate 2: 9.35e5
- outcome: inactive

CG13920
- firefly reporter light, replicate 1: 1.72e6
- firefly reporter light, replicate 2: 1.50e6
- Renilla control light, replicate 1: 2.50e6
- Renilla control light, replicate 2: 2.07e6
- outcome: inactive

Syx1A #1
- firefly reporter light, replicate 1: 83401
- firefly reporter light, replicate 2: 78297
- Renilla control light, replicate 1: 1.41e6
- Renilla control light, replicate 2: 2.16e6
- outcome: inactive

Syx1A #2
- firefly reporter light, replicate 1: 6.45e5
- firefly reporter light, replicate 2: 6.71e5
- Renilla control light, replicate 1: 1.99e6
- Renilla control light, replicate 2: 1.76e6
- outcome: inactive

Zif
- firefly reporter light, replicate 1: 1.40e5
- firefly reporter light, replicate 2: 47080
- Renilla control light, replicate 1: 5.60e5
- Renilla control light, replicate 2: 4.55e5
- outcome: inactive

Cpr72Eb
- firefly reporter light, replicate 1: 2.80e5
- firefly reporter light, replicate 2: 2.14e5
- Renilla control light, replicate 1: 2.75e6
- Renilla control light, replicate 2: 2.54e6
- outcome: inactive

CG6654
- firefly reporter light, replicate 1: 66288
- firefly reporter light, replicate 2: 60922
- Renilla control light, replicate 1: 6.55e5
- Renilla control light, replicate 2: 5.22e5
- outcome: inactive

CG14312
- firefly reporter light, replicate 1: 70628
- firefly reporter light, replicate 2: 94643
- Renilla control light, replicate 1: 1.38e6
- Renilla control light, replicate 2: 1.56e6
- outcome: inactive
